Data on one compound can be found in PubChem BioAssay AID1671189 (National Center for Advancing Translational Sciences (NCATS), 2021).

Amino acid sequences for entries named in this document (tags omitted). A change or cut given only in a name is not applied to a line headed by its entry.
UniProt P18054: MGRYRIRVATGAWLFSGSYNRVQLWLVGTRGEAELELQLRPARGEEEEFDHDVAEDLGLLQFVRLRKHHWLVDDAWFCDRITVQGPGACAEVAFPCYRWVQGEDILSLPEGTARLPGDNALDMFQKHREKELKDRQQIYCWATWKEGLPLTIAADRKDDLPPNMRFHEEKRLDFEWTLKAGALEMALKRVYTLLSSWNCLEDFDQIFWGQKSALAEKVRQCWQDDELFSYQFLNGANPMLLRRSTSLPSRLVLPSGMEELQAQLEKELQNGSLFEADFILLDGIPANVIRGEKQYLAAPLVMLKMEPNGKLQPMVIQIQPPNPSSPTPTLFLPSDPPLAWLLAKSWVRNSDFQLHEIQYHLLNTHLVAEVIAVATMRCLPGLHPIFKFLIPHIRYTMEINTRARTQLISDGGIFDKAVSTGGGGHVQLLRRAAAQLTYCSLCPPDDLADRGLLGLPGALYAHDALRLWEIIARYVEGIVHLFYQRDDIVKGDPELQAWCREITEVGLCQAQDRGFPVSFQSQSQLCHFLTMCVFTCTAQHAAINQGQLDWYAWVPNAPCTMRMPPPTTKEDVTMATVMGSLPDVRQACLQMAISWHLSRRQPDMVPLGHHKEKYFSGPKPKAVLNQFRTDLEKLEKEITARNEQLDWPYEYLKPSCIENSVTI

This list holds what a sample rich in hits left over. Active and inactive are the calls of the source. Calls follow the shape of the dose curve; as a rule, active = well fitted curve in the direction sought with a large enough effect; inconclusive = small, poorly fitted or top-dose-only effect, or another doubt; inactive = no such curve, though single readings can be large or run the other way.
% is scaled to controls: 0 for no effect and ±100 for the full control effect.

This experiment concerns the target Polyunsaturated fatty acid lipoxygenase ALOX12 (Homo sapiens) (UniProt P18054). The experiment can be described thus: Confirmatory qHTS assay for inhibitors of human arachidonate 12S-lipoxygenase (ALOX12): Round 2. To be noted: purified human 12-LOX, xylenol orange absorbance; at 125 µM (top of the series). An excerpt:
Assay Provider: Theodore R. Holman Ph.D. University of California, Santa Cruz, California Human lipoxygenase 12hLO is a member of the closely related lipoxygenase family of enzymes which catalyze the site-specific oxidation of arachidonic acid to various hormone precursor molecules and as such is a candidate for drug development in a variety of disease areas, such as cancer and inflammation. Inhibition of 12hLO activity was screened by utilizing arachidonic acid as a substrate. The extent of hydroperoxide product formation was measured by a secondary chromogenic reaction in which xylenol orange (XO, Sigma-Aldrich, cat. number 39,818-7) reacts with the ferric ions produced from the reaction between the hydroperoxide and ferrous ions. The Fe (III)-XO complex is characterized with red-shifted absorbance at 560 nm. […]
PROTOCOL TABLE SEQUENCE No. (e.g., 1, 2, 3, etc.); […] […] 7; Incubation; 30 min; room temperature 8; Detector; absorbance; Read 1 at 405 nm absorbance using ViewLux (PerkinElmer) CCD imager. 9; Detector; absorbance; Read 2 at 573 nm absorbance using ViewLux (PerkinElmer) CCD imager. […] 8, 9; Two absorbance readouts were obtained at 405 nm and at 573 nm using a ViewLux high-throughput CCD plate imager (PerkinElmer). The 573 to 405 (Read 2 / Read 1) absorbance ratio was used to compute reaction progress.
(In qHTS, concentration-response curves come from the screen itself.)
For `Nc1nc2ccc(OC(F)(F)F)cc2s1`, the activity change, negative = inhibition is inactive: -16.6%.
